{"source": "patent US9399017B2", "about": "“Peptide pharmaceutical for oral delivery” (Enteris BioPharma, Inc., priority 2007, dated 2016)", "origin": "cited, not measured here", "settings": "cited from earlier work", "note": "Part of at least one peptide drawing is inferred or uncertain, most often the ends.", "data": [{"smiles": "CC(C)C[C@H](NC(=O)[C@H](CCCCN)NC(=O)CNC(=O)[C@H](CC(C)C)NC(=O)[C@@H](NC(=O)[C@@H]1CSSC[C@H](N)C(=O)N[C@@H](CO)C(=O)N[C@@H](CC(N)=O)C(=O)N[C@@H](CC(C)C)C(=O)N[C@@H](CO)C(=O)N[C@@H]([C@@H](C)O)C(=O)N1)C(C)C)C(=O)N[C@@H](CO)C(=O)N[C@@H](CCC(N)=O)C(=O)N[C@@H](CCC(=O)O)C(=O)N[C@@H](CC(C)C)C(=O)N[C@@H](Cc1c[nH]cn1)C(=O)N[C@@H](CCCCN)C(=O)N[C@@H](CC(C)C)C(=O)N[C@@H](CCC(N)=O)C(=O)N[C@H](C(=O)N[C@@H](Cc1ccc(O)cc1)C(=O)N1CCC[C@H]1C(=O)N[C@@H](CCCNC(=N)N)C(=O)N[C@H](C(=O)N[C@@H](CC(N)=O)C(=O)N[C@H](C(=O)NCC(=O)N[C@@H](CO)C(=O)NCC(=O)N[C@H](C(=O)N1CCC[C@H]1C(N)=O)[C@@H](C)O)[C@@H](C)O)[C@@H](C)O)[C@@H](C)O", "note": "[sCT, salmon calcitonin]", "values": [{"measurement": "peak levels at which proven effective against osteoporosis", "setting": "nasally administered, 200 International units", "result": "≥ 10", "unit": "picograms per milliliter"}, {"measurement": "duration of beneficial effect on osteoclasts", "setting": "notwithstanding rapid decrease in blood levels", "result": "more than 24 hours"}]}]}
